The values that follow come from US9260425B2 (Genetech, Inc., priority 2011, dated 2016).

Amino acid sequences for entries named in this document (tags omitted).
UniProt P11309, whole entry: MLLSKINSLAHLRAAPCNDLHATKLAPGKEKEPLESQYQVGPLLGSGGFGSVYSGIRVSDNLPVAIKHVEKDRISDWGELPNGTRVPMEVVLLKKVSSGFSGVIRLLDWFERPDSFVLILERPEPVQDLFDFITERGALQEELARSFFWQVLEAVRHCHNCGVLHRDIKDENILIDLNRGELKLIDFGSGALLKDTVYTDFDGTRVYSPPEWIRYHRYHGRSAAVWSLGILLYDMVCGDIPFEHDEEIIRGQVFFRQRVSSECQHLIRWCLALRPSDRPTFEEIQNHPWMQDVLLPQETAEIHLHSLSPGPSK

The structures given here were assigned with low confidence; some may be wrong.

The target in the assay is Pim-1 (Homo sapiens (Human), UniProt P11309). Kind of assay: Pim kinase binding activity assay (Example 901), PIM-1 enzyme, Caliper microfluidic peptide phosphorylation. It is filed as biochemical. As to conditions: read-out: Pim-1 Ki; 20 pM PIM-1, 10 μM ATP, 1 μM FAM-peptide, 90 minutes at room temperature.

As to `Cc1ccc(-c2n[nH]c3cnc(-c4cnn(C)c4)cc23)nc1N1CCC(N)CC1`, the Ki turned out to be 0.051 nM.
